From the supplement of paper PMC11348887
Structures can show the parent of a compound that is named as a salt. The list shows a part of the results. Most entries show no effect beyond the scatter of the controls. Where a SMILES comes first, the peptide text is derived from it. [ ]: non-standard residue; d: D form. The star is where a group is joined. Sta = CC(C)C[C@H](N)[C@@H](O)CC(=O)O; Isovaleryl = CC(C)CC(=O)*

How the values were obtained:
Conditions in all cases: 5 µM; treatment: days 7-14 after plating, readout day 21
[1] = test system: hPSC-derived cortical neurons (WA09); experiment: nucleus area z-score vs screen plate; higher = larger nuclei (more mature)
[2] = test system: hPSC-derived cortical neurons (WA09); experiment: total neurite length per nucleus (MAP2) z-score; higher = more neurite growth
[3] = test system: hPSC-derived cortical neurons (WA09); experiment: nucleus roundness z-score vs screen plate; higher = rounder nuclei (more mature)
[4] = test system: hPSC-derived cortical neurons (WA09); experiment: KCl-induced FOS+/EGR-1+ double-positive nuclei fraction z-score (KCl minus unstimulated); higher = stronger activity-induced IEG response

Structure (SMILES) | nucleus area z-score [1] | total neurite length per nucleus (z-score) [2] | nucleus roundness z-score [3] | KCl-induced FOS+/EGR-1+ double-positive nuclei fraction z-score [4]
c1coc(CNc2ncnc3[nH]cnc23)c1 [Kinetin] | 1.18 | 0.254 | -1.25 | -1.03
CC(C)c1onc(-c2c(Cl)cccc2Cl)c1COc1ccc(/C=C/c2cccc(C(=O)O)c2)c(Cl)c1 | 1.3 | -1.37 | -1.08 | -1.02
Cc1cccc(-c2[nH]c(C(C)(C)C)nc2-c2ccc3nccnc3c2)n1 | 4.45 | -3.06 | -3.11 | -1.18
CC(C)(C(=O)O)c1ccc(C(O)CCCN2CCC(C(O)(c3ccccc3)c3ccccc3)CC2)cc1 (centres undefined) [Fexofenadine HCl] | 0.526 | -0.0971 | -0.0057 | -1.22
NCCCCCC(=O)O [_6-__-_Aminocaproic acid] | 0.835 | 1.14 | 0.257 | 2.67
C[C@]12CC[C@@H]3c4ccc(O)cc4CC[C@H]3[C@@H]1C[C@@H](O)[C@@H]2O [Estriol] | 1.21 | 0.0643 | -0.304 | 1.13
COc1ccc(C2CNC(=O)C2)cc1OC1CCCC1 (centres undefined) [Rolipram] | 0.0448 | -0.0605 | 0.308 | 0.844
COc1ncc(-c2cc(-c3ncc(CN4C[C@@H](C)O[C@@H](C)C4)o3)c3cn[nH]c3c2)cc1NS(C)(=O)=O | -3.23 | -1.47 | -0.0524 | -0.763
CNC[C@H](O)c1ccc(O)c(O)c1 [Epinephrine Bitartrate] | 1.66 | -0.0822 | -0.376 | 0.246
COC(=O)N/N=C/c1c[n+]([O-])c2ccccc2[n+]1[O-] [Carbadox] | 2.23 | 0.35 | -0.187 | 1.61
COc1cc2c(cc1OCCCN1CCCC1)N=C(N)C21CCC1 | 0.806 | 1.15 | 0.939 | -0.0959
Oc1nc(-c2ccc(C(F)(F)F)cc2)nc2c1CSCC2 | 1.25 | 3.74 | -0.859 | -0.417
COc1cccc(-c2cc(=O)c3ccccc3o2)c1N | 3.8 | 0.0992 | 0.643 | 1.81
O=C(O)c1ccc(O)c2ncccc12 | -1.65 | -0.557 | 1.16 | 3.06
CC(C)(C)c1cc(C(=O)C(C#N)=NNc2cccc(Cl)c2)no1 | 0.671 | 0.399 | 0.207 | 1.29
CC(C)CC(=O)Nc1n[nH]c2c1CN(C(=O)C1CCN(C)CC1)C2(C)C | -9.71 | -3.11 | -4.35 | -1.09
CC[N+](CC)(CC)CCOc1cccc(OCC[N+](CC)(CC)CC)c1OCC[N+](CC)(CC)CC [Gallamine Triethiodide] | -0.713 | 0.491 | 0.786 | 2.68
CC(C)CC(N)=O [Isovaleramide] | 1.18 | -1.18 | -0.476 | -0.447
CCOC(=O)[C@H](CCc1ccccc1)N[C@@H](C)C(=O)N1Cc2ccccc2C[C@H]1C(=O)O [Quinapril HCl] | 0.41 | -0.22 | 0.257 | -0.23
O=C(/C=C/c1cncc(F)c1)c1c(-c2ccccc2)c2cc(Cl)ccc2[nH]c1=O | -16.7 | -5.31 | -16.4 | -0.278
C[S+]([O-])c1ccc(-c2nc(-c3ccc(F)cc3)c(-c3ccncc3)[nH]2)cc1 (centres undefined) | -0.0249 | -0.47 | -1.33 | 0.152

Structure (SMILES) | nucleus area z-score [1] | total neurite length per nucleus (z-score) [2] | nucleus roundness z-score [3] | KCl-induced FOS+/EGR-1+ double-positive nuclei fraction z-score [4]
O=C(Nc1ccc([N+](=O)[O-])cc1O)Nc1ccccc1Br | -3.82 | -2.57 | 0.691 | -0.711
COc1ccc(C(=O)Nc2sc3c(c2C(N)=O)CCCC3)cc1OC | 1.27 | -0.508 | 0.0742 | 0.015
COc1cc2c(Nc3ccc(NC(=O)c4ccccc4)cc3)ncnc2cc1OCCCN1CCOCC1 | 1.25 | 1.47 | 0.587 | -0.0316
Nc1ncn([C@H]2C[C@H](O)[C@@H](CO)O2)c(=O)n1 [Decitabine] | -0.00135 | 0.395 | 0.933 | 0.314
CN1CC2c3ccccc3Oc3ccc(Cl)cc3C2C1 (centres undefined) [Asenapine] | 0.541 | -1.76 | -1.21 | -0.917
CNC(=O)c1ccc(C)c(-n2c(C)cc(OCc3ccc(F)cc3F)c(Br)c2=O)c1 | 1.15 | 0.0696 | -0.11 | 1.72
CCC1C/C(=C\c2cccnc2)C(=O)/C(=C/c2cccnc2)C1 (centres undefined) | -16.9 | -6.35 | -10.1 | -0.812
C[C@@H](NCCCc1cccc(C(F)(F)F)c1)c1cccc2ccccc12 [Cinacalcet HCl] | -0.3 | -1.58 | -0.441 | 0.0283
Cc1ncc(C[n+]2csc(CCO)c2C)c(N)n1 [Thiamine HCl (Vitamin B1)] | 0.29 | 0.237 | 0.594 | -0.626
CCCSc1nc(N[C@@H]2C[C@H]2c2ccc(F)c(F)c2)c2nnn([C@@H]3C[C@H](OCCO)[C@@H](O)[C@H]3O)c2n1 [Ticagrelor] | -0.825 | 1.34 | 1.64 | -0.271
COc1ccc(-c2cc(=O)c3c(O)cc(O)cc3o2)cc1O [Diosmetin] | 0.869 | -0.686 | -1.29 | -0.889
CCc1c(O)cc(O)c(C(=O)c2ccc(OCCN3CCOCC3)c(OC)c2)c1CC(=O)N(CCOC)CCOC | -8.91 | -4.98 | -4.46 | -0.895
COc1ccccc1N1CCN(CCCNc2cc(=O)n(C)c(=O)n2C)CC1 [Urapidil HCl] | 0.299 | -0.983 | -1.2 | 0.445
NC[C@H]1O[C@H](O[C@H]2[C@H](O[C@@H]3O[C@H](CO)[C@@H](O)[C@H]3O)[C@@H](O)[C@H](N)C[C@@H]2N)[C@H](N)[C@@H](O)[C@@H]1O [Ribostamycin Sulfate] | 0.139 | 0.257 | -0.00253 | 0.771
CCOC(=O)c1ccc(N)cc1 [Benzocaine] | 0.199 | -0.103 | 0.265 | 1.23
CCCC(C(=O)OCCN(CC)CC)(c1ccccc1)c1ccccc1 [Proadifen HCl] | -1.29 | -1.7 | -1.66 | -0.411
O=C(NC[C@H](O)CO)c1ccncc1Nc1ccc(I)cc1F | -0.743 | -0.355 | 0.46 | -1.29
Cc1nc(Nc2n[nH]c3c2CN(C(=O)N[C@H](CN(C)C)c2ccccc2)C3(C)C)c2sccc2n1 | -12.2 | -3.29 | -4.68 | -0.647
CO[C@@H](C)Cn1c(=O)n(C)c2cnc3ccc(-c4cncc(C(C)(C)O)c4)cc3c21 | -7.22 | -3.11 | -3.77 | -1.15
COc1cc(Nc2c(C#N)cnc3cc(OCCCN4CCN(C)CC4)c(OC)cc23)c(Cl)cc1Cl [Bosutinib (SKI-606)] | 2.41 | 1.25 | -0.871 | -1.21
COc1ccc(C(C)=O)c(O)c1 [Paeonol] | 0.698 | 0.181 | -0.0586 | 1.09

Single values from the entries so far:
Value for CCCSc1nc(N[C@@H]2C[C@H]2c2ccc(F)c(F)c2)c2nnn([C@@H]3C[C@H](OCCO)[C@@H](O)[C@H]3O)c2n1 [Ticagrelor] under nucleus roundness z-score [3]: 1.64
Value for CC[N+](CC)(CC)CCOc1cccc(OCC[N+](CC)(CC)CC)c1OCC[N+](CC)(CC)CC [Gallamine Triethiodide] under nucleus roundness z-score [3]: 0.786
Value for CC(C)(C(=O)O)c1ccc(C(O)CCCN2CCC(C(O)(c3ccccc3)c3ccccc3)CC2)cc1 (centres undefined) [Fexofenadine HCl] under nucleus area z-score [1]: 0.526

More results

Structure (SMILES) | nucleus area z-score [1] | total neurite length per nucleus (z-score) [2] | nucleus roundness z-score [3] | KCl-induced FOS+/EGR-1+ double-positive nuclei fraction z-score [4]
CC(C)CC(=O)N[C@H](C(=O)N[C@H](C(=O)N[C@@H](CC(C)C)[C@@H](O)CC(=O)N[C@@H](C)C(=O)N[C@@H](CC(C)C)[C@@H](O)CC(=O)O)C(C)C)C(C)C [Pepstatin A] (Isovaleryl-VV[Sta]A[Sta]-OH) | 0.0157 | 0.557 | 1.89 | 1.45
CCOC(=O)N[C@@H]1CC[C@@H]2[C@@H](C1)C[C@H]1C(=O)O[C@H](C)[C@H]1[C@H]2/C=C/c1ccc(-c2cccc(F)c2)cn1 [Vorapaxar] | 0.58 | 0.0437 | 0.344 | -0.312
CCOC(=O)[C@H](CCc1ccccc1)N[C@H]1CCCN2CCC[C@@H](C(=O)O)N2C1=O [Cilazapril Monohydrate] | 0.0123 | 0.0463 | 0.36 | 0.974
NS(=O)(=O)c1ccc(C(=O)O)cc1 [Carzenide] | -0.0672 | 0.549 | 1.09 | 0.0555
CCCCOC(=O)c1ccc(O)cc1 [Butylparaben] | -0.366 | -1.22 | -0.823 | -0.716
O=C(O)Cn1nnc(-c2cc(N3CCC(Oc4cc(F)ccc4Br)CC3)no2)n1 | -0.122 | -0.116 | 0.48 | 0.141
CCOc1cn(-c2ccc(F)cc2C)nc1C(=O)Nc1ccc(Oc2ccnc3cc(OC)c(OC)cc23)c(F)c1 | -0.178 | 0.596 | 0.927 | 0.171
CC(=O)N1c2ccc(-c3ccc(C(=O)O)cc3)cc2[C@H](Nc2ccc(Cl)cc2)C[C@@H]1C | -3.62 | -1.74 | -5.19 | 0.0323
N=C(N)NC(=O)c1nc(Cl)c(N)nc1N [Amiloride HCl] | -0.628 | 0.212 | -0.194 | -0.395
CNC(=O)[C@H](Cc1ccccc1)NC(=O)[C@H](CC(C)C)[C@H](CSc1cccs1)C(=O)NO [Batimastat (BB-94)] | -0.042 | -1.25 | -1.18 | -3.07
NCCCC(N)(C(=O)O)C(F)F (centres undefined) [Eflornithine hydrochloride hydrate] | 0.889 | 0.166 | 0.386 | 1.26
COC(=O)[C@]12CCC(C)(C)C[C@H]1[C@H]1C(=O)C=C3[C@@]4(C)C=C(C#N)C(=O)C(C)(C)[C@@H]4CC[C@@]3(C)[C@]1(C)CC2 [Bardoxolone Methyl] | -17.6 | -6.5 | -15.5 | -2.34
CN(N=O)C(=O)NC1C(O)OC(CO)C(O)C1O (centres undefined) [Streptozotocin (STZ)] | -0.0252 | 0.519 | 0.633 | 0.513
COc1ccccc1N1CCN(CC(O)COc2cccc3ccccc23)CC1 (centres undefined) [Naftopidil] | -0.369 | 0.621 | 0.0981 | -0.786
COc1ccc([C@H]2CNC(=O)C2)cc1OC1CCCC1 [S- (+)-Rolipram] | 0.335 | 0.548 | 0.65 | 0.155
CCn1cc(-c2ccnc3[nH]c(-c4cccc(CN(C)C)c4)cc23)c(-c2ccc(NC(=O)N(C)C)cc2)n1 | -3.17 | -1.89 | -1.31 | -0.84
c1cnc2cc3c(cc2n1)[C@@H]1CNC[C@H]3C1 [Varenicline Tartrate] | 3.15 | -0.0491 | -0.103 | 0.12
C[C@@](Cc1ccc(O)c(O)c1)(NN)C(=O)O [Carbidopa] | -0.172 | 0.7 | 0.874 | 0.579
CCc1ccc(OCc2ccccc2C(=O)Nc2ccc3nc(C)cc(N)c3c2)cc1 | -14.7 | -5.47 | 0.5 | -0.176
